Measured values as given in publication PMC9740131.
These are yes or no findings as the source states them, for the method shown. Binding seen in cells or lysates may run through a third protein.

Amino acid sequences for entries named in this document (tags omitted). A change or cut given only in a name is not applied to a line headed by its entry.
UniProt Q9UHB6: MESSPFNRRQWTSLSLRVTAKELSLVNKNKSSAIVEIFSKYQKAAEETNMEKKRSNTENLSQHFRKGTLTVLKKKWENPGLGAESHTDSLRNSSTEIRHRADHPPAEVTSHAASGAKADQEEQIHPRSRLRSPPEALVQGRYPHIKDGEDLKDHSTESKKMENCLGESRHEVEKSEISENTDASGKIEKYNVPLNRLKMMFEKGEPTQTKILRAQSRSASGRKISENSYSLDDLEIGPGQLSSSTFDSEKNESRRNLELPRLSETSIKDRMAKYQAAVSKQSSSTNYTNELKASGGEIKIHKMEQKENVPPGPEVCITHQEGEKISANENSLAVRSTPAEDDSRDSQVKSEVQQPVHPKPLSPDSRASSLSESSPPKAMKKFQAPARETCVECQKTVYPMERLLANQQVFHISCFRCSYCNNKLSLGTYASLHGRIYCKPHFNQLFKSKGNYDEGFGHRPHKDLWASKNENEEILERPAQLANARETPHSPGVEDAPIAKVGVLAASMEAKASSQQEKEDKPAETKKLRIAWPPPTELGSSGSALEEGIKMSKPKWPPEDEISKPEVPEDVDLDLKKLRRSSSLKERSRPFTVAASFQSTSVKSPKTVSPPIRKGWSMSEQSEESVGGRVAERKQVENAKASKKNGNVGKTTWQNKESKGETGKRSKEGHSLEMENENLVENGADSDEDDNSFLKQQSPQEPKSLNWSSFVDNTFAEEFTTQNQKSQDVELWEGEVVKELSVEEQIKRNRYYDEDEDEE
UniProt O95831: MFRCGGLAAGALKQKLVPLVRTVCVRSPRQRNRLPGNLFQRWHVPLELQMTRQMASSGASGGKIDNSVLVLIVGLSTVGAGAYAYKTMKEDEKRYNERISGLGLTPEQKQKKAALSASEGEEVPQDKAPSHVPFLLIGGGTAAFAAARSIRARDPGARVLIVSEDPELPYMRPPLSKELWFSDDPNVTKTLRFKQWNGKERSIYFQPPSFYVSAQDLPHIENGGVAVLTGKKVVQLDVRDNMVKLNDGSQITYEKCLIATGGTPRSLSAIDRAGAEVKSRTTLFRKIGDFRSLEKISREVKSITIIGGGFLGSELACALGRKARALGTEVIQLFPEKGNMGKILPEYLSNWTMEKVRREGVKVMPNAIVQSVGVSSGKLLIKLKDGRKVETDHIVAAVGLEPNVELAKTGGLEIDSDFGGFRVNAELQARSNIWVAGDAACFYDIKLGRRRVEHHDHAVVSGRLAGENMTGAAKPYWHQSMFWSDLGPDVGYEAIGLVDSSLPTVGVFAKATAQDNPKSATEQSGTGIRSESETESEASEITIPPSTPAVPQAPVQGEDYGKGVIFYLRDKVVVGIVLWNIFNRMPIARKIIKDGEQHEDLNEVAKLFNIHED

Molecular target: LIM domain and actin binding 1 (LIMA1) (human (endogenous in Huh7)) (UniProt Q9UHB6)
Assay: co-IP; endogenous proteins of Huh7 cells lysed with NP-40 and 1% PMSF; Pierce Magnetic IP/Co-IP Kit; western blotting

- binding: no binding
Substance: AIFM1 (from UniProt O95831)
